The values below are quoted from earlier work in patent US8084219B2, “Methods for detecting and analyzing N-glycolylneuraminic acid (Neu5Gc) in biological materials” (The Regents of the University of California, priority 2003, dated 2011).

The structures appear in SMILES notation. Read-outs that look alike come from different tables or passages of the source.

For the series the following is noted: HPLC peaks, cited from earlier work.

Turning to `O=C(CO)N[C@H]1[C@H]([C@H](O)[C@H](O)CO)OC(O)(C(=O)O)C[C@@H]1O` (stereo partly drawn) [Neu5Gc, N-glycolylneuraminic acid], the “Neu5Gc as share of total Sias” value by setting is: (normal adult human heart) approximately 2%; (normal adult human liver, skin and kidney) less than 1%; (normal adult human spleen and testes) approximately 1%.
